From publication PMC10115800, “Two assembly modes for SIN3 histone deacetylase complexes” (Cell Discovery, 2023)
No constants are given. Whether binding was seen depends on the method and setting. Binding seen in cells or lysates may run through a third protein. These calls come from enrichment with a bait or labelling near it, and not all partners need be listed. For part of these data: No binding means not detected with the bait. Tags and fused reporters may be left off the sequences shown.

T1: Pst2 with C-terminal 3× Flag-tag (S. pombe, UniProt O13919 1-1075)
T1 construct: Pst2, Sin3 homolog of S. pombe, organising subunit of the SIN3S complex; all five domains (PAH1/2/3, HID, HCR) are resolved; also called Pst2-Flag; Sin3 isoform Pst2; source: endogenous locus tagged, S. pombe; purified (ANTI-FLAG M2 resin, glycerol gradient); not shown: 3× Flag, C-terminal, kept
T1 sequence (looked up): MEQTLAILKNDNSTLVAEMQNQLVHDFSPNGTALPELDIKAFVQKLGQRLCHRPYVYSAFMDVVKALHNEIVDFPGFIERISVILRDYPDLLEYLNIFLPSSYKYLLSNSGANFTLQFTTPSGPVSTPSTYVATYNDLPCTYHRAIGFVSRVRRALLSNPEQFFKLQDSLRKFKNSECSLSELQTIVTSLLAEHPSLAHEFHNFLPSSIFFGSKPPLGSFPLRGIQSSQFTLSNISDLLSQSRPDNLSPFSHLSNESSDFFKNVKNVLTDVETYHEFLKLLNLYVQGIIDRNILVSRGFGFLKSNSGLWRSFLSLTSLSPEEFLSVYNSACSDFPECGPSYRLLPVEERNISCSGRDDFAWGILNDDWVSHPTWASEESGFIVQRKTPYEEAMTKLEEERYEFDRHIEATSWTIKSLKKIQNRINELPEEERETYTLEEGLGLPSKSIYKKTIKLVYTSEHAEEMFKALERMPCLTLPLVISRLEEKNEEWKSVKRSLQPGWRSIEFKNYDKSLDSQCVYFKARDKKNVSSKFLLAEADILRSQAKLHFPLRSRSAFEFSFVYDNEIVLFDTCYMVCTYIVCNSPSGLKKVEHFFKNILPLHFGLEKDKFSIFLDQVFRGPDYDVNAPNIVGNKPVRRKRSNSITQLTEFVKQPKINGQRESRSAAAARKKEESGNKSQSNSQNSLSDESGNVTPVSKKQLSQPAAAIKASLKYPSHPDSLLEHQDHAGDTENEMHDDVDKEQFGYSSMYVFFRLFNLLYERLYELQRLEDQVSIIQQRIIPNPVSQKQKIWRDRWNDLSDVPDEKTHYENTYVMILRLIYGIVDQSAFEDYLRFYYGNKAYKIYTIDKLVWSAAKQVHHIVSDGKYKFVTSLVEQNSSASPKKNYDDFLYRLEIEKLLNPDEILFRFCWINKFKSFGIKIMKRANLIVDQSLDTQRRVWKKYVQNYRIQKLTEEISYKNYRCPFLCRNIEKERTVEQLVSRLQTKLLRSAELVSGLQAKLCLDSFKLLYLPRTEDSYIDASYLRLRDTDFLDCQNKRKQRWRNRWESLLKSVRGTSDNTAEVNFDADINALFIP

T2: Pst3 with C-terminal 3× Flag-tag (S. pombe, UniProt O74755 1-1154)
T2 construct: Pst3, Sin3 homolog of S. pombe, subunit of the SIN3L complex; PAH3, HID and HCR are resolved in the model; Endogenous protein; also called Pst3-Flag; Sin3 isoform Pst3; source: endogenous locus tagged, S. pombe; purified (ANTI-FLAG M2 resin, glycerol gradient); not shown: 3× Flag, C-terminal, kept
T2 sequence (looked up): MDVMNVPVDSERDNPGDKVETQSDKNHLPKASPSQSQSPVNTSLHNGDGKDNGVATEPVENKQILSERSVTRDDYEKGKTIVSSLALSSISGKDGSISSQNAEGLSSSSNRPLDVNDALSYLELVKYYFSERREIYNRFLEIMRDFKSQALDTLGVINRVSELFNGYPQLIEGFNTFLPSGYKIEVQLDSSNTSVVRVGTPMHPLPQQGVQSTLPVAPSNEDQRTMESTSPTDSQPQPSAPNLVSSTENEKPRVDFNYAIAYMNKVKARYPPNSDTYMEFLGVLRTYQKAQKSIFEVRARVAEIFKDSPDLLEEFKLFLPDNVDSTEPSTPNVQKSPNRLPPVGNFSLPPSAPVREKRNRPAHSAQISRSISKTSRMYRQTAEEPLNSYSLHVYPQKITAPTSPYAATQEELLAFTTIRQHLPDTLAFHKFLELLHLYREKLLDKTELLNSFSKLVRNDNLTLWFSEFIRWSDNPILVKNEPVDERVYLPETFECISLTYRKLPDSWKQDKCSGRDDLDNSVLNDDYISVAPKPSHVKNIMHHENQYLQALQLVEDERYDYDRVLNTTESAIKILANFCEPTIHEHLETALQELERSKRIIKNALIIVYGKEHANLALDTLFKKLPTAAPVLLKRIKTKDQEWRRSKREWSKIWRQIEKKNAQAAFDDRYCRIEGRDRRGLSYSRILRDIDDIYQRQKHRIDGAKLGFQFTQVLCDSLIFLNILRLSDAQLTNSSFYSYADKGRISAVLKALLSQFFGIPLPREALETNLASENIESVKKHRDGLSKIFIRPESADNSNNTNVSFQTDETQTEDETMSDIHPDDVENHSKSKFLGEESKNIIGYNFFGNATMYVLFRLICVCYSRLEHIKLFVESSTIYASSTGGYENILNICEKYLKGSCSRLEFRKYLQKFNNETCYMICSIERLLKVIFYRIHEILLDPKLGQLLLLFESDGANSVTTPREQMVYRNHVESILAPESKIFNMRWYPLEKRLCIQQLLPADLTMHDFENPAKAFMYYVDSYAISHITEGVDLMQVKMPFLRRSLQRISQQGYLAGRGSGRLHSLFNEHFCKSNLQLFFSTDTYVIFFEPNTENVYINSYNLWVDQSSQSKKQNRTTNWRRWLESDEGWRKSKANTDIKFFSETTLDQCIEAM

B1: iron-sensing transcriptional repressor Fep1 (protein, UniProt Q10134 1-564)
chain: MAAKPAPFGQSCSNCHKTTTSLWRRGPDNSLLCNACGLYQKHRKHARPVKSEDLKDISPLIQQVCKNGTCAGDGFCNGTGGSASCTGCPALNNRIRSLNASKSQSGRKSLSPNPSSVPSSTETKASPTPLESKPQIVSDTTTETSNGTSRRRSSHNQHEDSSPPHEPSVTFCQNCATTNTPLWRRDESGNPICNACGLYYKIHGVHRPVTMKKAIIKRRKRLVFNGNANESQHNLKRMSSGDSGSSVKQQSTRDGPFSKSFPNGNGHASGNSGEGLAEHGMNTGVLPPASTFPSYNSNFTGFLPSSFNPSPLMTLSRLAAGEPDNNGKVYYSYGPTQEQSILPLPENKHEGLPPYQNEYVPNGIRANQVVYPGQLVAVGNDSSKQLSESTTSNTDNNGVATANQSNPLGMKFHLPPILPVGESVCLPPRTSAKPRIAEGIASLLNPEEPPSNSDKQPSMSNGPKSEVSPSQSQQAPLIQSSTSPVSLQFPPEVQGSNVDKRNYALNVLSQLRSQHDLMIQELHNLNQHIQQIDEWLRSSDNENMASEHIKSSTPAVVASGALQT
B2: Eaf3 (protein, UniProt O13953 1-337)
chain: MAVSYKVNERVLCFHGPLLYEAKIVDTEMKGDVTTYLIHYKGWKNSWDEWVEQDRILQWTEENLKTQKELKNAAISTRQKPTSKKSASSTSKHDSTGVKTSGKRSRESSTVTVDGDSHELPSRIKTQKSESPIPQQVKRDGTTDAKNEETTKPENNEKDDFEEEPPLPKHKISVPDVLKLWLVDDWENITKNQQLIAIPRNPTVRAAIAAFRESKISHLNNEIDVDVFEQAMAGLVIYFNKCLGNMLLYRFERQQYLEIRQQYPDTEMCDLYGVEHLIRLFVSLPELIDRTNMDSQSIECLLNYIEEFLKYLVLHKDEYFIKEYQNAPPNYRSLVGV
B3: Dep1 (protein, UniProt Q9P7M1 1-491)
chain: MTENLQSESIPHEILPKEPFDLPMNNLKSSPKNKDSEKRINNSIAESEQVVDSALSNPETNANEDIIAPQLPSQNSEIIEKNSPVNKLNSSTSLTTHQLASLPKLEVTDHDNVSEAETVVLNEDEEKETSLVGSVSVTEDLGDSSAIGRTILVNNSVEPQMENTANITIVSPSLKESDFESEEKATNDNNGLIETNHNSKLEESSEHEEEEDEESNIERTEDSDHQIPQRGGTLEAPRKGGPRSGVGSRKRKRATVSRKWSTNSESKIKRVALETSQEESDREIADRRSASEQAHEADDEKAIKRKEAFDALLNIETEFTFLRNRLYGKKLLKLNEHEEMIQNETHERFNACIDLITERRDDRVRLATENLMKQLGNIKNVMDYVTKQRKYQLLFDKRRIRQALLTKIATKCFQLLNKQKSVHDPTYITQKTMSYRQSALLQKQRIEYEAAVLCELNSFAGFPTAPIIETASFDDIRNDLLEMGCLSENQD
B4: Sds3 (natural protein, S. pombe, UniProt Q9UTB6 1-267, looked up)
chain: MDVLSRVFDNEKEELDPLLNNPLTASEFRAKKAELEAELESIRNGTCKTLLDLADELRRSRDEELEIAERWRTFLVNRAQEEYEVEMKAAKEEYEYRCKTLKEMVLSHLNEKKRKIYEAKDMFDIGSESSTLLLHDASSQFIDRRKLRHRRNAGNQQNTQQLPSLNFFDDYLLFPTDETAVIPQSVKNAVRNSVNSVKPTSAEASLFSPLLSMANANPTNGRERDPRASERAERDREKAVEKGLSGATEEDIQSDLQLLKKELAKKK
notes: Sds3 of S. pombe, scaffold subunit of the SIN3L complex; Endogenous protein; source: endogenous, S. pombe; co-purified with Pst3-3×Flag (ANTI-FLAG M2 resin, glycerol gradient)
B5: Png2 (protein, UniProt O74736 1-305)
chain: MGTSGIEIFAALNDFTDAIVSVPESVCGKFTSLKEIDAQVRDIRQNVIQEIGVVLKNEKNDELSGEERCERLQKTLKEILPYSDSKICLATDAMNNIKSCIDRLDAGFEYVELEIPQQLRLGYPDDRALMNYHSTVTPQTSERRRETRRHQNNQHSQQYSSQERSSSYNNFEDASSPQSSYHTPTKRRKNAVPRKSSSPPLSSTKHAPQSTERRPVRRSESRLKQTNGEPLVKHDTLDSSDISREGEQLYCYCQQVSYGQMIGCDNENCKREWFHLPCVGLVEPPKGIWYCKECEELAKSSESRQ
B6: Cti6 (protein, UniProt Q1MTR4 1-424)
chain: MPSNSTPANEEKEEESEKIQKSPVDTPHTPNGSVSDNEENETSSTGEVTRCVCGIVESDDEASDGGLYIQCDQCSVWQHGNCVGFADESEVPEVYYCEICHPEFHKVYQRGRGAKQSKYLGNGKPIEASQTEESSSTPPSPATKKSSKQRLTMNSRDAALDYEEYLAIAKEKSLIPRRSRGRTSSKSLSPPAPQDESQGTEINLKQKIEEENDEILEDSKESKDENEENKETSTTNVAETDAPEEETVDTVEEIADEEKHSVKEESGEASPQSSQQSTITSISTTTRSTRKAKREAAAEDKADLPAAVAPKPSKTRKVGGRRGKSSSNDNHRIPQLHPDGTFVETITKPKGLHSRITMTEMRRRVASMLEYIGHIQVEMAAQSAGNQSSTKSSKEGPEEEKETLRMVDNLTRDLLHWEQRFSRT
B7: Laf1 (protein, UniProt O13719 1-297)
chain: MKSSQTLVYSIPRNVEKDTCAAAIKAYQYLISPPPSPIPNDKVASTVDVPKCSTIPESPKDSIVEPKPTATPVAQLHSKVYDLYRDSPKIWLRRERQWLQRHSPAYRFSTPAAKRPRRQPSSFLDVHASNTRKRGSPDTPDSGHSTPHSKGDVHPGMPQHNTRFKQSSREFSSNTQAIDVANTPYELLPDYSPDMSVLDKRSHPRPLRSEWKGPPLDLSNDENRHLLHPAELQLAATLRLPCLVYLDNKRRIFAEWHNRRTQGLSFRKTDAQRASRVDVNKASRLWKAFHDEGFFDD
B8: Laf2 (protein, UniProt O74443 1-272)
chain: MQILKDQENLNPDGGSFVLITPPLSPPKQKSLSYTNISRRHGMRACMKGIVYEVYKNQPKLWLQQELIWLRRKRIHPIPKARRNNHVGRWANRHSNVSSSSGSRGRSSVSSRDSSPSYSGALRSAERSISSSPSTIEARRRKSARGNGLNGAIDVANLPFEELPNFCPDMSVLDNRTHPRTLKAEWKGPPLDLSDDPYRDLLHPAELHLASTLRLPCLIYLDNKKRIFAEWHHRRQQGLTFRKTDAQRASRVDVNKASRLWKAFHEVGFFDD

Target: T1, Pst2 with C-terminal 3× Flag-tag
Experiment: affinity purification with mass spectrometry; Pst2-3×Flag as bait from S. pombe lysate (350 mM NaCl) on ANTI-FLAG M2 resin, FLAG peptide elution, glycerol gradient; SDS-PAGE bands analysed by LC-MS/MS

Q: For B1, which binding is on record?
A: no binding

Q: For B2, which binding is on record?
A: binds

Target: T2, Pst3 with C-terminal 3× Flag-tag
Experiment: affinity purification with mass spectrometry; Pst3-3×Flag as bait from S. pombe lysate (350 mM NaCl) on ANTI-FLAG M2 resin, FLAG peptide elution, glycerol gradient; SDS-PAGE bands analysed by LC-MS/MS

Q: With B3 as the binder, how does the binding read?
A: binds

Q: With B4 as the binder, how does the binding read?
A: binds

Q: Which binding does the source give for B5 here?
A: binds

Q: B6 was tested. Which binding did it give?
A: binds

Q: Which binding does the source give for B7 here?
A: binds

Q: Which binding does the source give for B8 here?
A: binds

Q: For B1, which binding is on record?
A: binds
